Positions count from the first letter of the chain named. Results are given in words; binding and its absence hold for the method and conditions named. Some binding calls cover weakened binding; strength is not graded here.
T1: rhNR10 (recombinant human NR10) (human) (UniProt Q8NI17)
T1 sequence: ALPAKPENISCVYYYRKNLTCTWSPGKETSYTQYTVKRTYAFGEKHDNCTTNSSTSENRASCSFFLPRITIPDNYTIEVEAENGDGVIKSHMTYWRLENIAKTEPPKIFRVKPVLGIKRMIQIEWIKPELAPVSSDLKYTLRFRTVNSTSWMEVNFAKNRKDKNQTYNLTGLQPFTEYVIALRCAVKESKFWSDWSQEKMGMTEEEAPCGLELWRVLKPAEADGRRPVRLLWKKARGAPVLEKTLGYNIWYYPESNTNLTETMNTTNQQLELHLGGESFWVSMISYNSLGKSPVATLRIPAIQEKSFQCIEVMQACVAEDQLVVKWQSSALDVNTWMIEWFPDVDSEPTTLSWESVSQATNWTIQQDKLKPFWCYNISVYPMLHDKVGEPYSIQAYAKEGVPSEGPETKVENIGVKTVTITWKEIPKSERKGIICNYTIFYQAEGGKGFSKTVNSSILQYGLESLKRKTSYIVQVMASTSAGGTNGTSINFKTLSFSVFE

B1: H0L17 (H0-M58 / L17) (antibody, V domains shown)
VH: QVQLVQSGAEVKKPGASVKVSCKASGYTFTGYIMNWVRQAPGQGLEWMGLINPYNGGTSYNQKFKGRVTITADESTSTAYMELSSLRSEDTAVYYCARDGYDDGPYTMDYWGQGTLVTVSS
VL: DIQMTQSPSSLSASVGDRVTITCQASEDIYSFVAWYQQKPGKAPKLLIYNAQTEAQGVPSRFSGSGSGTDFTLTISSLQPEDFATYYCQHHYDSPLTFGGGTKVEIKR
B2: H28L17 (H28-M58 / L17) (antibody, V domains shown)
VH: B1 VH with I33V, M34L, S59D, Q62P, K63Q, K65Q, G66D, M108L, D109E, Y110T
VL: B1 VL
B3: H30L17 (H30-M58 / L17) (antibody, V domains shown)
VH: B1 VH with S59D, Q62P, K63Q, K65Q, G66D, M108L, D109E, Y110T
VL: B1 VL
B4: H34L17 (H34-M58 / L17) (antibody, V domains shown)
VH: B1 VH with I33A, S59D, Q62P, K63Q, K65Q, G66D, M108L, D109E, Y110T
VL: B1 VL
B5: H42L17 (H42-M58 / L17) (antibody, V domains shown)
VH: QVQLVQSGAEVKKPGASVKVSCKASGYTFTGYVLNWVRQAPGQGLEWMGLINPYNGGTDYNPQFQDRVTITADKSTSTAYMELSSLRSEDTAVYYCARDGYDDGPYTLETWGQGTLVTVSS
VL: B1 VL
B6: H44L17 (H44-M58 / L17) (antibody, V domains shown)
VH: B5 VH with V33I, L34M
VL: B1 VL
B7: H46L17 (H46-M58 / L17) (antibody, V domains shown)
VH: B5 VH with V33A, L34M
VL: B1 VL
B8: H57L17 (H57-M58 / L17) (antibody, V domains shown)
VH: B5 VH with V33I, L34M, D66G, K74E
VL: B1 VL
B9: H71L17 (H71-M58 / L17) (antibody, V domains shown)
VH: B5 VH with V33A, L34M, D66G, K74E
VL: B1 VL
B10: H78L17 (H78-M58 / L17) (antibody, V domains shown)
VH: B5 VH with V33I, L34M, D66G
VL: B1 VL
B11: H92L17 (H92-M58 / L17) (antibody, V domains shown)
VH: B5 VH with V33A, L34M, D66G
VL: B1 VL
B12: H97L50 (H97-M58 / L50) (antibody, V domains shown)
VH: B5 VH with V33I, L34M, D59S, P62Q, K74E
VL: B1 VL with V33L
B13: H98L50 (H98-M58 / L50) (antibody, V domains shown)
VH: B5 VH with V33I, L34M, D59S, P62Q
VL: B1 VL with V33L
B14: Hp3Lp15 (Hp3-SKSC / Lp15) (antibody, V domains shown)
VH: B1 VH with K63Q, K65Q, G66D
VL: B1 VL with A25T, V33L, D93E
B15: Ha101L0 (Ha101-SKSC / L0) (antibody, V domains shown)
VH: B1 VH with I33V
VL: B1 VL with Q24R, A25T, D28N, V33L, Q52K, E54L, Q56K, D93E
B16: Ha103L0 (Ha103-SKSC / L0) (antibody, V domains shown)
VH: B1 VH with M34I
VL: B1 VL with Q24R, A25T, D28N, V33L, Q52K, E54L, Q56K, D93E
B17: Ha111L0 (Ha111-SKSC / L0) (antibody, V domains shown)
VH: B1 VH with M34L
VL: B1 VL with Q24R, A25T, D28N, V33L, Q52K, E54L, Q56K, D93E
B18: Ha204L0 (Ha204-SKSC / L0) (antibody, V domains shown)
VH: B1 VH with S59D
VL: B1 VL with Q24R, A25T, D28N, V33L, Q52K, E54L, Q56K, D93E
B19: Ha219L0 (Ha219-SKSC / L0) (antibody, V domains shown)
VH: B1 VH with Q62P
VL: B1 VL with Q24R, A25T, D28N, V33L, Q52K, E54L, Q56K, D93E
B20: H0La134 (H0-SKSC / La134) (antibody, V domains shown)
VH: B1 VH
VL: B1 VL with Q24R, A25T, D28N, S31R, V33L, Q52K, E54L, Q56K, D93E
B21: H0La130 (H0-SKSC / La130) (antibody, V domains shown)
VH: B1 VH
VL: B1 VL with Q24R, A25T, D28N, S31R, Q52K, E54L, Q56K, D93E
B22: H0La303 (H0-SKSC / La303) (antibody, V domains shown)
VH: B1 VH
VL: B1 VL with Q24R, A25T, D28N, V33L, Q52K, E54L, Q56K
B23: H0La328 (H0-SKSC / La328) (antibody, V domains shown)
VH: B1 VH
VL: B1 VL with Q24R, A25T, D28N, V33L, Q52K, E54L, Q56K, D93E, S94D
B24: H0La326 (H0-SKSC / La326) (antibody, name in Kabat numbering, V domains shown)
VH: B1 VH
VL: B1 VL with Q24R, A25T, D28N, V33L, Q52K, E54L, Q56K, D93E, T97F
B25: Ha401La402 (Ha401-SKSC / La402) (antibody, V domains shown)
VH: B1 VH with I33V, M34I, S59D
VL: B1 VL with A25T, D28N, S31R, Q52K, E54L, Q56K
B26: H17L11 (H17-M58 / L11) (antibody, V domains shown)
VH: B5 VH with K74E, L108M, E109D, T110Y
VL: B1 VL with A25T, S31R
B27: H19L12 (H19-M58 / L12) (antibody, V domains shown)
VH: B1 VH with I33A, S59D, Q62P, K63Q, K65Q, G66D
VL: B1 VL with A25T
B28: chimeric NS23 (human gamma1, kappa) (antibody, V domains shown)
VH: EVQLQQSGPELVKPGTSMKISCKASGYSFTGYIMNWVKQSHGKNLEWIGLINPYNGGAEYNQKFKDKATFTVDKSSSTAYMELLSLTSEDSAVYYCARDGYDDGPYTMDYWGQGTSVTVSS
VL: DIQMTQSPASLSASVGETVTFTCRANENIYSYLAWYQQKQGKSPQLLVYNAKTLAEGVPSRFSGSGSGTQFSLKINSLQPEDFGSYYCQHHYGTPPTFGGGTKLEIK

biological target: T1, rhNR10 (recombinant human NR10) (human); experiment: SPR, Biacore T100; antibody captured on Protein A, rhNR10 as analyte

binding, binds:
B1
B2
B3
B4
B5
B6
B7
B8
B9
B10
B11
B12
B13
B14
B15
B16
B17
B18
B19
B20
B21
B22
B23
B24
B25
B26
B27

biological target: cytoplasmic domain-lacking human NR10 on CHO cells (hNR10-expressing CHO cells) (human) (UniProt Q8NI17); experiment: FMAT competition; FMAT Blue-NS22 on hNR10-expressing CHO cells; competitor FMAT Blue-NS22

binding, binds:
B28

biological target: cytoplasmic domain-lacking human NR10 on CHO cells (hNR10-expressing CHO cells) (human) (UniProt Q8NI17); experiment: FMAT competition on hNR10-expressing CHO cells: unlabeled chimeric antibody titrated against 8.8x10^-2 µg/ml FMAT Blue-NS22; FL1 = cell-bound labeled NS22

binding, binds:
B28
